This note sets out measurements from PMC5012566, “A Cell-Based Assay for Measuring Endogenous BcrAbl Kinase Activity and Inhibitor Resistance” (PLoS ONE, 2016).

The test system of assay [1] is K562-NR cells. Description: cells. As to conditions: Homo sapiens, read-out: Growth Inhibition IC50 (95% CI).
Assay [2] relates to K562-IR cells. Kind of assay: cells. As to conditions: Homo sapiens, read-out: Growth Inhibition IC50 (95% CI).

Broadly, the IC50 is the point on the concentration scale where inhibition reaches its midpoint. As for `Cc1ccc(NC(=O)c2ccc(CN3CCN(C)CC3)cc2)cc1Nc1nccc(-c2cccnc2)n1` [imatinib], the IC50 in assay [1] was determined as 9.01 µM; in assay [2] it was 1.33 µM.
